# Results taken from PMC7862700.
# The chains behind the UniProt entries cited, without tags or fusion partners. Where a name states a change or a piece, a line headed by the entry shows the natural chain unless it says otherwise.
# UniProt O43186: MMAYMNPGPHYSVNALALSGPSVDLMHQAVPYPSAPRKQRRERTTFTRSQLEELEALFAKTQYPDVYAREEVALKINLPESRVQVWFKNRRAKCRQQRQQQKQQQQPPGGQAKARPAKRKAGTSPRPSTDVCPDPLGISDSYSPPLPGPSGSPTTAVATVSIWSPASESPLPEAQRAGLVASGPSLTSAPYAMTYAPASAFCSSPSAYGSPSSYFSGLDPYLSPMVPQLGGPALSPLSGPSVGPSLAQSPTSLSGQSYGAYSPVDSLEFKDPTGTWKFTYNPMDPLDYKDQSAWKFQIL
# This is a selection; strong and weak results do not stand in their true shares. At the low end of the ranking the order means little.
# Legend:
# Assay in all cases: DAPPL (digital affinity profiling via proximity ligation, sequencing)
# Conditions in all cases: 10 mM Tris-HCl pH 7.5, 50 mM NaCl, 1 mM DTT, 4% glycerol, room temperature, 30 min; GST-TFs on glutathione beads, 16-mer random dsDNA library, 0.1% …; high values mean tight binding; double strand, one strand shown; scale: fold enrichment (6-mer frequency, TF over GST control)
# FEV = biological target: T1, FEV (UniProt Q99581)
# T1 sequence: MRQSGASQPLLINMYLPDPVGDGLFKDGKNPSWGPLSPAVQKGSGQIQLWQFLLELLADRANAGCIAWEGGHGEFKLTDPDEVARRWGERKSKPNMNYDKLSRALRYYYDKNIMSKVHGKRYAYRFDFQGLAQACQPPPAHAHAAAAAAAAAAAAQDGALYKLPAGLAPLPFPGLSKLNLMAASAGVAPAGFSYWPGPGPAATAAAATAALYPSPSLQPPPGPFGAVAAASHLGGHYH
# CRX = CRX (UniProt O43186)
# ELF5 = biological target: T2, ELF5 (UniProt Q9UKW6-2)
# T2 sequence: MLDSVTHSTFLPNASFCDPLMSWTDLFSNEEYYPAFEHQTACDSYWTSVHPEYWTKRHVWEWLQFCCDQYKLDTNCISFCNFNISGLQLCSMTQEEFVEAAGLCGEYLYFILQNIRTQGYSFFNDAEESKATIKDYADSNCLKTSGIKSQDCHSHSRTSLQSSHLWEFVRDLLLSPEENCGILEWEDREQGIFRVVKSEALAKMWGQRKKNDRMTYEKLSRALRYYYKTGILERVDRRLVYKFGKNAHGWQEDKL
Sequence,binding signal (FEV),binding signal (CRX),binding signal (ELF5)
CGGAGC,0.361,0.296,0.35
CGTGAT,0.462,0.486,0.473
CCAGGA,0.61,0.448,0.868
GAGCCA,0.595,0.465,0.577
GGGCCG,0.606,0.426,0.572
AGGCGA,0.52,0.529,0.513
GAACGT,0.396,0.391,0.394
GTCGGT,0.285,0.202,0.286
GGTGAC,0.833,0.532,0.756
GGCATG,0.858,0.616,0.812
CGCATG,0.615,0.562,0.638
GAGCGG,0.537,0.407,0.496
GCGGTC,0.634,0.462,0.602
GTCCGA,0.872,0.668,0.892
GTAAGA,0.765,0.96,0.783
ACGTGT,0.656,0.475,0.635
GGTGTG,0.65,0.486,0.651
GGCCGC,0.815,0.565,0.738

Sequence,binding signal (FEV),binding signal (CRX),binding signal (ELF5)
CAGTAA,0.713,0.862,0.68
GGGTAC,0.885,0.655,0.905
GATTGT,0.799,0.948,0.748
GCAGTT,0.857,0.682,0.795
GGTGTA,0.874,0.671,0.767
ACAGGC,0.677,0.588,0.622
CGAGTG,0.802,0.679,0.776
AGAGGA,0.57,0.642,0.748
GTGAAA,0.707,0.579,0.726
GACAAC,0.95,0.68,0.926
CGGAGT,0.325,0.256,0.294
AGCCGT,0.484,0.496,0.46
GGGTAA,0.83,0.913,0.915
GTGCGG,0.662,0.488,0.703
AAGACA,0.923,0.948,0.985
ACGTGA,0.263,0.241,0.258
CGTGTG,0.415,0.327,0.424
ACCGGG,0.487,0.381,0.538

# 2 entries drawn at random from the list so far:
Sequence,binding signal (FEV),binding signal (CRX),binding signal (ELF5)
ACGTGA,0.263,0.241,0.258
CGGAGT,0.325,0.256,0.294
